Test results as given in the supplement of paper PMC3334620.
The full ranking holds about 33,000 sequences; the median of “E-score (-0.5 to 0.5)” is about -0.0059, and the highest 2% start at about 0.26. Some of the results follow.

What follows are sequences tested against T1, Cin5 (UniProt P40917) (assay: PBM E-score (8-mer binding enrichment) (E-score (-0.5 to 0.5)); higher = stronger / more preferred TF binding). Conditions: protein concentration: 100 nM; construct: GST-full length.
T1 sequence: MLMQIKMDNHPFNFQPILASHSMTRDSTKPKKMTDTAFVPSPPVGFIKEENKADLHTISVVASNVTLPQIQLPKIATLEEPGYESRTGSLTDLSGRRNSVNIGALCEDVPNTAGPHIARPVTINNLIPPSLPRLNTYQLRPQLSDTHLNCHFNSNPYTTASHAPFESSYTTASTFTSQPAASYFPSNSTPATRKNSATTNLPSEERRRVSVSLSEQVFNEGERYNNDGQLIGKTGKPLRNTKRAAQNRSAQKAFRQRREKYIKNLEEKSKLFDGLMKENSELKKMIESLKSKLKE
How it was run: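 Universal all-10-mer Agilent arrays, double-stranded by primer extension on fresh or once-stripped slides, were probed with about 100-200 nM GST-tagged yeast transcription factors made by PURExpress. Fluorescent anti-GST detected bound protein, and masliner normalised the scans. E-scores from the Universal PBM Analysis Suite were given to each ungapped eight-base word pooled with its reverse complement.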
With TCTGCTCA the “PBM E-score” value was -0.144. In the case of CAAAAGGG, the “PBM E-score” value is reported as -0.141. GAAAAGAC was tested, and the “PBM E-score” value was 0.0608. With CGCCTTAC the “PBM E-score” value was -0.18. GAAATGCA was tested, and the “PBM E-score” value was 0.141. With GCGCTGCC the “PBM E-score” value was -0.32. CAATCGAG was tested, and the “PBM E-score” value was 0.0295. ACCATGTC was tested, and the “PBM E-score” value was -0.0115. For CGGTTTTA, the “PBM E-score” value was 0.0231. CATTCCCC was tested, and the “PBM E-score” value was 0.11. CCTAAGCA was tested, and the “PBM E-score” value was 0.155. GCGTGACA was tested, and the “PBM E-score” value was 0.0384. For CTGCTATA, the “PBM E-score” value was 0.117. For GGAAGTAA, the “PBM E-score” value was 0.161. In the case of CGCTGGAA, the “PBM E-score” value is reported as -0.174. With GACATGAC the “PBM E-score” value was -0.128. In the case of GGTAATTA, the “PBM E-score” value is reported as 0.188. CCGAATTC was tested, and the “PBM E-score” value was 0.015. For ATCACGGG, the “PBM E-score” value was -0.0407. In the case of AAGCTCTA, the “PBM E-score” value is reported as -0.00578. In the case of CGACGGCA, the “PBM E-score” value is reported as -0.198. For GAAGCTGA, the “PBM E-score” value was 0.0805. With CACTACGA the “PBM E-score” value was -0.0486. For GGATTAGA, the “PBM E-score” value was 0.165. For AGATAACG, the “PBM E-score” value was 0.242. GATTTACA was tested, and the “PBM E-score” value was 0.122. For AGTTTTTG, the “PBM E-score” value was 0.107. For GCACCGAC, the “PBM E-score” value was -0.0796. With ACGTTGCT the “PBM E-score” value was 0.188. For CACTGTAC, the “PBM E-score” value was -0.0867. With CATAATGC the “PBM E-score” value was 0.0534. For GGCAGGAC, the “PBM E-score” value was -0.138. GCCTCCCA was tested, and the “PBM E-score” value was -0.249. For GAACGACA, the “PBM E-score” value was 0.0804. For ATTACTTA, the “PBM E-score” value was 0.411. In the case of CTTATTTC, the “PBM E-score” value is reported as 0.238. With CGTTACCA the “PBM E-score” value was 0.0697. With CCGTACCA the “PBM E-score” value was 0.0407. For AACCCGCG, the “PBM E-score” value was 0.157. CTAAACAG was tested, and the “PBM E-score” value was -0.0317. With AACATGTG the “PBM E-score” value was 0.257. CGGTGACA was tested, and the “PBM E-score” value was -0.0328. For CATAGCAC, the “PBM E-score” value was 0.0563. With CCCCGACG the “PBM E-score” value was -0.00202. For CTAGACGC, the “PBM E-score” value was -0.204. For CTAAAGAG, the “PBM E-score” value was -0.125. AAAAGTGC was tested, and the “PBM E-score” value was 0.0297. With GAATCATA the “PBM E-score” value was 0.152. With CATCACTA the “PBM E-score” value was 0.0954. With GTCATAAC the “PBM E-score” value was 0.0128. In the case of CCACCGGG, the “PBM E-score” value is reported as -0.196. With CATTTAAA the “PBM E-score” value was 0.193. AGGCCAGA was tested, and the “PBM E-score” value was -0.0898. With CCGGTTTA the “PBM E-score” value was -0.0883. AATCACCA was tested, and the “PBM E-score” value was 0.212. In the case of AACTAAAT, the “PBM E-score” value is reported as 0.167. In the case of ACAGGCCC, the “PBM E-score” value is reported as -0.267. CCACTTTC was tested, and the “PBM E-score” value was -0.0281. In the case of CAGGGACG, the “PBM E-score” value is reported as -0.205. TCGGCCAA was tested, and the “PBM E-score” value was -0.00266. For CGAATGGC, the “PBM E-score” value was 0.195. In the case of GGCCACGA, the “PBM E-score” value is reported as -0.163. CCCACTGC was tested, and the “PBM E-score” value was 0.0176. CAGCCCAA was tested, and the “PBM E-score” value was 0.0141. In the case of TAGCTCCA, the “PBM E-score” value is reported as -0.0567. With CGAACCGA the “PBM E-score” value was 0.0339. In the case of AGTGGCGG, the “PBM E-score” value is reported as -0.0216. For TCGTGCCA, the “PBM E-score” value was -0.134. With CATTCTTC the “PBM E-score” value was 0.16. In the case of TACCAAAA, the “PBM E-score” value is reported as 0.0202. In the case of GTAACGAC, the “PBM E-score” value is reported as -0.058. With CACTAGCA the “PBM E-score” value was -0.0696. In the case of ATGGGCTG, the “PBM E-score” value is reported as -0.0265. AGATACGA was tested, and the “PBM E-score” value was 0.211. In the case of TCGTCACA, the “PBM E-score” value is reported as 0.0131. For AGAAAAAC, the “PBM E-score” value was -0.076. CTCTTAGA was tested, and the “PBM E-score” value was -0.0511. For CCGGTCCC, the “PBM E-score” value was -0.0708. With ATTACGAG the “PBM E-score” value was 0.299. AGATTATG was tested, and the “PBM E-score” value was 0.248. For AATTAGCC, the “PBM E-score” value was -0.0635. For AGCGTGGG, the “PBM E-score” value was -0.184. For CACATGCG, the “PBM E-score” value was -0.0249. In the case of ACATCATA, the “PBM E-score” value is reported as 0.258. CCATCCCC was tested, and the “PBM E-score” value was -0.141. For CGGGATCC, the “PBM E-score” value was 0.144. CTTTACTA was tested, and the “PBM E-score” value was 0.252. CCGTGAAA was tested, and the “PBM E-score” value was 0.0835. For GCCCCTGA, the “PBM E-score” value was -0.0843. AACTTGCA was tested, and the “PBM E-score” value was 0.0959. In the case of ACGGTTTG, the “PBM E-score” value is reported as -0.161. In the case of ATAAATAA, the “PBM E-score” value is reported as 0.321. CAATGGAA was tested, and the “PBM E-score” value was 0.0943. For GTGAGCCA, the “PBM E-score” value was 0.0352. For CCTCTTCA, the “PBM E-score” value was -0.254. In the case of ATAAGTAA, the “PBM E-score” value is reported as 0.198. In the case of GTACCTCA, the “PBM E-score” value is reported as 0.0535. In the case of CTAGGCAC, the “PBM E-score” value is reported as -0.22. GCCTGATA was tested, and the “PBM E-score” value was -0.0274. For AAAGGAAG, the “PBM E-score” value was -0.167. With CTCGCGAA the “PBM E-score” value was -0.0923. In the case of ACATACCG, the “PBM E-score” value is reported as -0.0577. In the case of AGCATCAT, the “PBM E-score” value is reported as 0.137. With CAAATTTC the “PBM E-score” value was 0.11. In the case of TACGATAA, the “PBM E-score” value is reported as 0.22. For AACTCGCT, the “PBM E-score” value was 0.149. With AGCTCGCA the “PBM E-score” value was 0.0516. In the case of GACCACTC, the “PBM E-score” value is reported as -0.133. With GAGAGCCC the “PBM E-score” value was -0.386. For ACAGTCTG, the “PBM E-score” value was -0.14. With GAGCCAGA the “PBM E-score” value was -0.0535. For TCGCCCGA, the “PBM E-score” value was -0.0633. For CGGATAGC, the “PBM E-score” value was 0.0584. CCGTCAAA was tested, and the “PBM E-score” value was -0.133. With GATTTGAA the “PBM E-score” value was 0.121. ATTAGAGC was tested, and the “PBM E-score” value was 0.105. For ACATCGAT, the “PBM E-score” value was 0.0571. TACTCAGA was tested, and the “PBM E-score” value was 0.154. ACTAAGGA was tested, and the “PBM E-score” value was 0.0227. In the case of CTGACTGC, the “PBM E-score” value is reported as -0.148. With GTGGAGGA the “PBM E-score” value was -0.0744. In the case of GACACGCC, the “PBM E-score” value is reported as -0.00175. For AGCTGGTA, the “PBM E-score” value was -0.0911. In the case of CTCAGTCA, the “PBM E-score” value is reported as -0.031. With GGAAATTA the “PBM E-score” value was 0.256. ACGGGCGG was tested, and the “PBM E-score” value was -0.214. For TCAGCAAA, the “PBM E-score” value was 0.146. ATTTCCTA was tested, and the “PBM E-score” value was 0.0639. AAGTTTCT was tested, and the “PBM E-score” value was 0.109. With ATCCGTCA the “PBM E-score” value was 0.119. With ACGCCTAT the “PBM E-score” value was -0.0453. CAAGCCGG was tested, and the “PBM E-score” value was 0.0852. With TCGACTCA the “PBM E-score” value was 0.0883. AAGCTTTC was tested, and the “PBM E-score” value was 0.122. For CGCGACCG, the “PBM E-score” value was -0.0437. GAGAGCGC was tested, and the “PBM E-score” value was -0.122. With GCAGTCTA the “PBM E-score” value was -0.0135. With GCATCGTA the “PBM E-score” value was 0.0386. In the case of AGTTCGGG, the “PBM E-score” value is reported as 0.168. ATCTGCAG was tested, and the “PBM E-score” value was 0.00093. In the case of CGCAGTAA, the “PBM E-score” value is reported as 0.0778. In the case of GCAGCTAA, the “PBM E-score” value is reported as -0.147. With GAAATTAC the “PBM E-score” value was 0.204. With CACTGTTC the “PBM E-score” value was -0.108. TAAGTTCA was tested, and the “PBM E-score” value was 0.0195. For CTAGCAGC, the “PBM E-score” value was -0.0739. For GCGAACGC, the “PBM E-score” value was -0.171. With CAGCTTGC the “PBM E-score” value was -0.0574. In the case of ATGTTACA, the “PBM E-score” value is reported as 0.133. With CCAGATTA the “PBM E-score” value was 0.225. With ACCCCTTG the “PBM E-score” value was -0.237. In the case of ACTAGTTC, the “PBM E-score” value is reported as 0.0406. For ATATACAG, the “PBM E-score” value was 0.219. With GGTTAGTA the “PBM E-score” value was 0.118. In the case of AAAAGTAC, the “PBM E-score” value is reported as 0.181. For ACACGGAA, the “PBM E-score” value was 0.107. For CAGAGCCA, the “PBM E-score” value was -0.254. For ATAGATGA, the “PBM E-score” value was 0.0621. For ATCCTTAC, the “PBM E-score” value was 0.0268. With AGGCTTTA the “PBM E-score” value was -0.141. For CGGGCAAA, the “PBM E-score” value was -0.0295. With ACCCGTGG the “PBM E-score” value was -0.206. ATCGATAA was tested, and the “PBM E-score” value was 0.132. In the case of CAATATGG, the “PBM E-score” value is reported as 0.0326. AACCTACG was tested, and the “PBM E-score” value was -0.0341. With GTTTTGGA the “PBM E-score” value was -0.163. For CTCGACAA, the “PBM E-score” value was -0.065. For AGGTACCT, the “PBM E-score” value was -0.37. With CGTTCGTA the “PBM E-score” value was 0.243. ACGTACCG was tested, and the “PBM E-score” value was 0.017. For GAATGATC, the “PBM E-score” value was -0.046. CCTGAATC was tested, and the “PBM E-score” value was -0.006.
